Data taken from patent US9364000B2, “Method of controlling pests with fused heterocyclic compound” (Sumitomo Chemical Company, Limited, priority 2012, dated 2016).
Some entries share one result that the patent states for a list of compounds. For at least one compound, name, drawing or mass did not settle the structure.

Experiments:
Assay type in all cases: in vivo
Aphis gossypii [1] = assay: Test Example 1: foliar spray on cucumber seedling inoculated with Aphis gossypii; conditions: 500 ppm active ingredient, 20 ml sprayed on cucumber seedling, six days after spraying
Nilaparvata lugens [2] = assay: Test Example 3: spray on rice seedling, Nilaparvata lugens larvae released; conditions: 500 ppm, 10 ml sprayed on rice seedling, third-fourth instar larvae, after 6 days
Nilaparvata lugens [3] = assay: Test Example 4: foot drench of rice seedling, Nilaparvata lugens larvae released; conditions: 500 ppm, 5 ml drenched at foot of rice seedling, larvae released after 7 days, examined 6 days later
Bemisia tabaci = assay: Test Example 5: spray on tomato seedling with Bemisia tabaci instar larvae; conditions: 500 ppm, 20 ml/cup sprayed on tomato seedling, after 7 days
Aphis gossypii [4] = assay: Test Example 2: foot drench of cucumber seedling, later inoculated with Aphis gossypii; conditions: 500 ppm, 5 ml drenched at foot of cucumber seedling, inoculated after 7 days, examined 6 days later

Measured: control value

CCS(=O)(=O)c1cc(C(F)(F)F)ncc1-c1nc2cc(C(F)(F)F)cnc2n1C [compound 13]
≥ 90%: Aphis gossypii [1]

CCSc1ncccc1-c1nc2cc(C(F)(F)C(F)(F)F)cnc2n1C [compound 47]
not listed: Aphis gossypii [4]
≥ 90%: all other assays above

CCS(=O)(=O)c1ncccc1-c1nc2cc(C(F)(F)C(F)(F)F)cnc2n1C [compound 48]
≥ 90%: all assays above

CCS(=O)(=O)c1ncccc1-c1nc2cc(SC(F)(F)F)cnc2n1C [compound 50]
≥ 90%: Nilaparvata lugens [3] | Aphis gossypii [4] | Bemisia tabaci

CCS(=O)(=O)c1ccncc1-c1nc2cc(C(F)(F)C(F)(F)F)cnc2n1C [compound 52]
≥ 90%: Nilaparvata lugens [3] | Aphis gossypii [4] | Bemisia tabaci

CCS(=O)(=O)c1ccncc1-c1nc2cc(SC(F)(F)F)cnc2n1C [compound 54]
≥ 90%: Nilaparvata lugens [3] | Aphis gossypii [4]
